According to patent US20260008815A1, “CYCLIC PEPTIDE OR SALT THEREOF, AND USES THEREOF” (FUJIFILM Corporation, priority 2023, published 2026):
No constants are given. Whether binding was seen depends on the method and setting. Some results given as binding are weak or reduced against the parent protein; the word gives no strength.

The chains behind the UniProt entries cited, without tags or fusion partners. Where a name states a change or a piece, a line headed by the entry shows the natural chain unless it says otherwise. Residues count along the entry.
UniProt P11362, residues 22-376: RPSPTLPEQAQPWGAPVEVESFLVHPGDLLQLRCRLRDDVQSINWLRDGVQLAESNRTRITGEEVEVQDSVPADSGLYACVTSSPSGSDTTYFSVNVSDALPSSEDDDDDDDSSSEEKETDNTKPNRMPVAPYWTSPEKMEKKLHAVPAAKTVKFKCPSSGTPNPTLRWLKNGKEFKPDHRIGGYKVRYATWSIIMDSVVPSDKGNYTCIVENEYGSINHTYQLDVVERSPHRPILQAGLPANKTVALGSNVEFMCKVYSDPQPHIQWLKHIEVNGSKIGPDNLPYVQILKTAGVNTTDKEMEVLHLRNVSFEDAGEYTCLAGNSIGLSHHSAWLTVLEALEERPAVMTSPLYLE
UniProt P21802, residues 22-377: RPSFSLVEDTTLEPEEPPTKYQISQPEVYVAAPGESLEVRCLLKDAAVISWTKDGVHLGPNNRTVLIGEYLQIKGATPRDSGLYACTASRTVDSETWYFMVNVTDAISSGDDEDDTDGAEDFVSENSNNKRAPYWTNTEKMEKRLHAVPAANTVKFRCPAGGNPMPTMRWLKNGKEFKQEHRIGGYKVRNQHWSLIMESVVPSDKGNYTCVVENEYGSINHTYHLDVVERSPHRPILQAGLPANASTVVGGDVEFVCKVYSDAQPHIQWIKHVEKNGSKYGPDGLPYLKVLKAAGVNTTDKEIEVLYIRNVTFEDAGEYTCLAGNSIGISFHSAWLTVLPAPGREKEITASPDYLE
UniProt P22607, residues 23-375: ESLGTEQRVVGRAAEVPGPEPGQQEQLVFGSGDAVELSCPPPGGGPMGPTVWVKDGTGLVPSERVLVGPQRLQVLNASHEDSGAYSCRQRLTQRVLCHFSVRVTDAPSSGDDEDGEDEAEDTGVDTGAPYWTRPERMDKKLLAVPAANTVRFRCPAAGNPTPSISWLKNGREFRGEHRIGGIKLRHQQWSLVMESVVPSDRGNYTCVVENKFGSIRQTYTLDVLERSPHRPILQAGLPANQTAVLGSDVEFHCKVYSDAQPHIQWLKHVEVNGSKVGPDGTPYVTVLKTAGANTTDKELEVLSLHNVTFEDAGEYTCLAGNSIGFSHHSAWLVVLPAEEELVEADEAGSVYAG

Columns and labels:
Experiment in all cases: SPR, 1 umol/L FGFR over immobilized peptide
[1] = biological target: FGFR1 Protein, Human, Recombinant (His Tag) (Sino Biological, 10616-H08H) (human) (UniProt P11362)
[2] = biological target: FGFR2 Protein, Human, Recombinant (His Tag) (Sino Biological, 10824-H08H) (human) (UniProt P21802)
[3] = biological target: FGFR3 Protein, Human, Recombinant (ECD, His Tag) (Sino Biological, 16044-H08H) (human) (UniProt P22607)

Measured: binding

YCEENYLDPEQYQYFIYFKYKKK (thioether ring (C)-(K(acetyl))) [cyclic peptide SEQ ID NO: 450]
binds: all assays above
